The results in this text go back to article PMC10692146.

Chains of the proteins cited; added tags and fusions are not shown. Residues count along the entry.
UniProt P02769, residues 25-607: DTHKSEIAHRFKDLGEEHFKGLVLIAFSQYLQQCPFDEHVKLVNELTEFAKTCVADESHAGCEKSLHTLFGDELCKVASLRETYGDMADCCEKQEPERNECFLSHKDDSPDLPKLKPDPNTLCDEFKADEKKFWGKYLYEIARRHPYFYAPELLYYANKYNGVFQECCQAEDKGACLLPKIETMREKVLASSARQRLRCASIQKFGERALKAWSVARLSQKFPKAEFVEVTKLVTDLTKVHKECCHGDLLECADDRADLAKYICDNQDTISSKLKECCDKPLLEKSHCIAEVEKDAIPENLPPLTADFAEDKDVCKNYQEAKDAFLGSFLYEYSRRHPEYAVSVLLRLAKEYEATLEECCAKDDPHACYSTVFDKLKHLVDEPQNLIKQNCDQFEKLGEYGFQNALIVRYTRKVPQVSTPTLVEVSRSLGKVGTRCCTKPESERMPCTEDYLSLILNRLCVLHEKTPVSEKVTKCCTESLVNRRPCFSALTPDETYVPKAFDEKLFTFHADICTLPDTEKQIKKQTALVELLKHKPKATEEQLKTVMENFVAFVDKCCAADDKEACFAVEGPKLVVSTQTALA

No constants are given. Whether binding was seen depends on the method and setting.

The test deals with T1, FITC-TAB1 peptide (amino acids 384-412 of TAB1).
T1 sequence (peptide, FITC label (end not stated)): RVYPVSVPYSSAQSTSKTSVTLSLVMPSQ
In words: native gel or EMSA; FITC-TAB1 peptide 0.25 µM pre-mixed with BSA 8 µg/mL, increasing p38α (0–6 µM) in 20 mM Tris pH 7.5, 100 mM NaCl, 20% DMSO, with 2 mM DTT (reduced) or without DTT (oxidized, after 10 µM H2O2 for 1.5 h); 15 min on ice; 7.5% gel, Tris/glycine pH 9.9, 4 °C; fluorescence imaging; both purified. On the technique in general: In EMSA bound probe runs differently from free probe, usually more slowly.

On to BSA (from UniProt P02769 25-607), for which the binding result is given as “no binding (tested: BSA 8 μg/mL)”.
